Paper PMC8534798
No constants are given. Whether binding was seen depends on the method and setting. In cells and extracts the contact can be indirect. Some results given as binding are weak or reduced against the parent protein; the word gives no strength. Sequences can lack the tags named with a protein.

By UniProt entry, the sequences of proteins in these tests, tags left out.
UniProt P84022: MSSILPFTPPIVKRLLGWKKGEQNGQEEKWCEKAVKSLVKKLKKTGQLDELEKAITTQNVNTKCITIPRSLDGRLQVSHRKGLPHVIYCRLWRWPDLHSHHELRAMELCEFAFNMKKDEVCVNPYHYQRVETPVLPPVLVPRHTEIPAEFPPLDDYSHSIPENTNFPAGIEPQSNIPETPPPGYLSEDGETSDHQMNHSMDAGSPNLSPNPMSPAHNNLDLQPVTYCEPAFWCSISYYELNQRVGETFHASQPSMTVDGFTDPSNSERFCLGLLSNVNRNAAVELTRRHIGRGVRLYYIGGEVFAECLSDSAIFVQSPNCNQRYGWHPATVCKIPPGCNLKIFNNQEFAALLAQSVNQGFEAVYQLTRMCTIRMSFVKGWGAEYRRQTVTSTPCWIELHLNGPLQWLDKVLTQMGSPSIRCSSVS
UniProt Q15796: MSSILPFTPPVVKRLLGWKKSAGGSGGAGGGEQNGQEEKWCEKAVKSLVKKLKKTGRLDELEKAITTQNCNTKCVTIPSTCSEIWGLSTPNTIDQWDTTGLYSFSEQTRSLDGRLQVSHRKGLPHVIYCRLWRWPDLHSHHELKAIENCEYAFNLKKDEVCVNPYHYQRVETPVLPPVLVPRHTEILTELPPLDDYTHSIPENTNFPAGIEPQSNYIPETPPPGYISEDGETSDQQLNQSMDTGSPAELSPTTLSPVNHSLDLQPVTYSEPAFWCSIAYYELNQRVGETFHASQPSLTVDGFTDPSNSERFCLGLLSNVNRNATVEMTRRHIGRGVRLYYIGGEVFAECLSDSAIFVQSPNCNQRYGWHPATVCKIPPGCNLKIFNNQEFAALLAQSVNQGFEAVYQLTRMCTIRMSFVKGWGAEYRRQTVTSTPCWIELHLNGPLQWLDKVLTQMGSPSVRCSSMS

Columns and labels:
[1] = molecular target: HA-Smad3 (wild type) (human) (UniProt P84022); test: co-IP; Xenopus embryos co-injected with Flag-foxd4l1.1 and HA-smad2/HA-smad3 mRNA at the one-cell stage, harvested at stage 10.5 or 11; cleared lysates incubated overnight at 4 °C with anti-HA, protein A/G beads; Western blot with anti-Flag
[2] = molecular target: HA-Smad2 (wild type) (human) (UniProt Q15796); test: as above

- binding [1]: binds
- binding [2]: binds
B1: Flag-Foxd4l1.1 (protein, UniProt Q9PRJ8 1-352)
chain: MSFSQESGAHHHPQDYAGLSDEEDEIDILGEDDPCSLKSHFYLQPTHSVMGDSEMLSPSKLSCTESESDSSGESEGGTSKDSSTTPTGSKAKRTLVKPPYSYIALITMAILQSPHKKLTLSGICDFISSKFPYYKDKFPAWQNSIRHNLSLNDCFIKIPREPGNPGKGNYWTLDPASEDMFDNGSFLRRRKRFKRHQQEFFKDGLMMYNSLPYYRPYSAIQPQPVLQQTSLTCMAIPETLPMSTHLAPYPDIKRKVSYPAQGVHRGFKAQDADNHPNNSQSKCSFSIENIMRKPKEPEPNIQSFNSHWNYNHVFQRPSSCLLPAVLNLSTGPLLANTQGARQYNLIQFPGCY
